{"source": "PubChem BioAssay AID504467", "about": "(National Center for Advancing Translational Sciences (NCATS), 2011)", "note": "Out of some 330,000 compounds screened, about 7,700 (2.3%) were called active. Inconclusive results, whose numbers are uncertain, are shown with a selection of clear calls. Calls follow the shape of the dose curve; as a rule, active = well fitted inhibition curve with a large enough effect; inconclusive = small, poorly fitted or top-dose-only effect, or effect the other way; inactive = flat fitted curve, though single readings scatter. Where the call is inconclusive, the potency comes from a doubtful curve fit. % is scaled to controls: 0 for no effect and ±100 for the full control effect; potency is read from the fitted curve at half-maximal effect."}
{"assay": "qHTS screen for small molecules that inhibit ELG1-dependent DNA repair in human embryonic kidney (HEK293T) cells expressing luciferase-tagged ELG1; also: nearly all actives have a fitted effect of over 55% in size", "settings": "HEK293T ELG1-luciferase reporter, luminescence, 16 h, DNA damage induced by 5-fluorouridine; activity change, negative = inhibition: at 46.1 µM (top of the series)", "outline": "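Quantitative HTS, concentration-response format. 2,000 cells/well co-treated with 5-fluorouridine and compound, 16 hr in 5% CO2 at 37 °C; ONE-Glo luminescence read after 30 min.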"}
{"smiles": "COc1ccccc1Cc1nc(-c2ccc(Br)o2)no1", "Potency": "inconclusive: 10.3 µM [activator, partial curve]"}
{"smiles": "O=C(CCCn1c(SCc2cccc(F)c2)nc2ccccc2c1=O)NCC1CCCO1", "note": "(stereo not drawn)", "Potency": "inconclusive: 29.1 µM [inhibitor, single point]"}
{"smiles": "CCN(CC)S(=O)(=O)c1cccc(NC(=O)COc2ccc(F)cc2Br)c1", "Potency": "inconclusive: 29.1 µM [inhibitor, single point]"}
{"smiles": "O=C(Nc1ccc(N2CCOCC2)cc1)c1ccc(Cl)nc1", "Potency": "inconclusive: 25.9 µM [activator, partial curve, poor fit]"}
{"smiles": "Cc1nc2ccccc2n1-c1ccccc1", "activity change, negative = inhibition": "inactive: -12.8%"}
{"smiles": "CCC1CCCCN1C(=O)COC(=O)c1cc(=O)[nH]c2ccccc12", "note": "(stereo not drawn)", "Potency": "inconclusive: 14.6 µM [activator, single point]"}
{"smiles": "CCOc1ccc(NC(=O)c2ccco2)cc1", "Potency": "inconclusive: 2.59 µM [activator, full curve]"}
{"smiles": "CCC(C)C(NC(=O)c1ccccc1NC(=O)c1ccc(OC)cc1)C(=O)NCc1ccco1", "note": "(stereo not drawn)", "activity change, negative = inhibition": "inactive: 7.17%"}
{"smiles": "CC1C(=O)N(Cc2cccc(F)c2)c2ccccc2N1C(=O)c1ccccc1", "note": "(stereo not drawn)", "Potency": "active: 23.1 µM"}
{"smiles": "Cn1c(CC(=O)Nc2ccccc2F)nnc1SCC(=O)Nc1nccs1", "activity change, negative = inhibition": "inactive: -3.1%"}
{"smiles": "O=C(COc1ccc(Cc2ccccc2)cc1)c1ccc(F)cc1", "Potency": "inconclusive: 18.4 µM [activator, single point]"}
{"smiles": "O=c1c2ccccc2oc2ccc(Oc3ccccc3)cc12", "Potency": "inconclusive: 9.2 µM [activator, partial curve]"}
{"smiles": "COC(=O)c1ccc(/C=C(\\C#N)c2ccccn2)cc1", "Potency": "inconclusive: 6.51 µM [activator, partial curve]"}
{"smiles": "CCOC(=O)c1cc(NC(=O)c2cc(C)on2)cc(C(=O)OCC)c1", "Potency": "inconclusive: 5.8 µM [inhibitor, single point]"}
{"smiles": "O=C(COc1ccc2ccccc2c1Br)N1CCOCC1", "Potency": "inconclusive: 23.1 µM [activator, single point]"}
{"smiles": "CCn1c(SCC(=O)Nc2oc(-c3ccccc3)c(-c3ccccc3)c2C#N)nnc1-c1cc(OC)cc(OC)c1", "Potency": "inconclusive: 29.1 µM [inhibitor, partial curve, poor fit]"}
{"smiles": "COC(=O)c1ccc(C(=O)OC)c(NC(=O)CN2CCN(c3ccc(OC)cc3)CC2)c1", "Potency": "inconclusive: 3.66 µM [inhibitor, single point]"}
{"smiles": "O=C(CCN1C(=O)[C@@H]2Cc3ccccc3CN2C1=O)NCCc1ccccc1", "activity change, negative = inhibition": "inactive: -2.64%"}
{"smiles": "Cc1[nH]c2ccccc2c1/C=N/NC(=O)c1cccc(S(=O)(=O)Nc2cccc(C(F)(F)F)c2)c1", "Potency": "inconclusive: 18.3 µM [inhibitor, partial curve]"}
{"smiles": "COc1ccc(Cl)cc1N(CC(=O)NCCSc1ccccn1)S(=O)(=O)c1ccccc1", "activity change, negative = inhibition": "inactive: -8.02%"}
{"smiles": "COc1ccc(CN(C)S(=O)(=O)c2nnc(NC(=O)c3cccc(OC)c3)s2)cc1", "activity change, negative = inhibition": "inactive: 12.6%"}
{"smiles": "O=C(OCC(=O)N1CCCCC1)c1ccc2ccccc2n1", "Potency": "inconclusive: 0.92 µM [inhibitor, single point]"}
{"smiles": "CC(=O)Nc1cc2nn(-c3ccccc3)nc2cc1Cl", "Potency": "inconclusive: 2.91 µM [activator, partial curve]"}
{"smiles": "COc1ccc(C)cc1C(=O)CCC(=O)Nc1ccccc1N1CCOCC1", "Potency": "inconclusive: 18.4 µM [inhibitor, single point]"}
{"smiles": "NC(=O)c1cc2ccccc2o/c1=N/NC(=O)c1ccccc1", "Potency": "inconclusive: 8.2 µM [activator, partial curve, poor fit]"}
{"smiles": "CCOc1ccc(Nc2nc(Cl)nc(N3CCN(c4ccc(OC)cc4)CC3)n2)cc1", "Potency": "inconclusive: 32.6 µM [inhibitor, single point]"}
{"smiles": "Cc1ccc(NC(=O)c2ccco2)c(NC(=O)c2ccccc2)c1", "activity change, negative = inhibition": "inactive: 2.19%"}
{"smiles": "CCn1ncc(Br)c1C(=O)Nc1ccc(OC(F)(F)F)cc1", "activity change, negative = inhibition": "inactive: 0.314%"}
{"smiles": "COCC(C)NC(=O)c1ccc(N(C)C)cc1", "note": "(stereo not drawn)", "Potency": "inconclusive: 23.1 µM [activator, partial curve, poor fit]"}
{"smiles": "COc1ccc(/C=C2\\Oc3cc(OCC(N)=O)ccc3C2=O)cc1OC", "activity change, negative = inhibition": "inactive: -3.72%"}
{"smiles": "N#Cc1c(N2CCCC2)nc(N)c2c(N)nc(N3CCCC3)cc12", "Potency": "inconclusive: 20.6 µM [inhibitor, partial curve, poor fit]"}
{"smiles": "Cc1ccc2c(COC(=O)CNC(=O)c3ccco3)cc(=O)oc2c1C", "activity change, negative = inhibition": "inactive: 1.47%"}
{"smiles": "Cc1ccc2[nH]cc(CCNC(=O)C3CCCCC3)c2c1", "activity change, negative = inhibition": "inactive: -2.4%"}
{"smiles": "CC(=O)Oc1cc(C(=O)OCC(=O)N2CCc3ccccc3C2)cc(OC(C)=O)c1OC(C)=O", "Potency": "inconclusive: 20.6 µM [inhibitor, partial curve]"}
{"smiles": "O=C(COC(=O)c1cccc([N+](=O)[O-])c1)c1ccc2c(c1)OCO2", "Potency": "inconclusive: 7.3 µM [activator, partial curve]"}
{"smiles": "COc1ccc(CN2CCN(C3CCC3)CC2CCO)cc1C", "note": "(stereo not drawn)", "activity change, negative = inhibition": "inactive: -3.61%"}
{"smiles": "Cc1noc(C)c1-c1ccc2ncnc(NCC3CCCCN3C)c2c1", "note": "(stereo not drawn)", "Potency": "inconclusive: 5.8 µM [activator, partial curve]"}
{"smiles": "COc1cccc(-c2nc3ccccc3s2)c1", "Potency": "inconclusive: 16.4 µM [activator, partial curve]"}
{"smiles": "CN1C(=S)N(c2ccccc2)C(=O)/C1=C/c1ccco1", "activity change, negative = inhibition": "inactive: 7.22%"}
{"smiles": "Cc1cc(C)c2cc(CN(CC3CCCO3)C(=S)NCc3ccco3)c(=O)[nH]c2c1", "note": "(stereo not drawn)", "Potency": "inconclusive: 18.3 µM [inhibitor, single point]"}
{"smiles": "CN(C)c1ccc(CN(C(=O)COc2ccc(Br)cc2)C2CCS(=O)(=O)C2)cc1", "note": "(stereo not drawn)", "Potency": "inconclusive: 23.1 µM [inhibitor, partial curve, poor fit]"}
{"smiles": "CSc1nnc(CNS(=O)(=O)c2ccc(Cl)cc2)n1C", "activity change, negative = inhibition": "inactive: 0.135%"}
{"smiles": "CC1(c2ccc(Cl)cc2)NC(=O)N(CC(=O)Nc2cccnc2Cl)C1=O", "note": "(stereo not drawn)", "activity change, negative = inhibition": "inactive: 0.529%"}
{"smiles": "CCOCCCNC(=O)CN1CCN(S(=O)(=O)c2ccc3c(c2)CCC3)CC1", "activity change, negative = inhibition": "inconclusive: 98.9% [activator]"}
{"smiles": "CCCn1c(N)cc(=O)n(C)c1=O", "activity change, negative = inhibition": "inactive: 7%"}
{"smiles": "Cc1cc(NC(=O)CCC(=O)N(Cc2cccs2)C(C(=O)NC2CCCC2)c2ccccc2)no1", "note": "(stereo not drawn)", "Potency": "inconclusive: 20.6 µM [inhibitor, single point]"}
{"smiles": "CC1(C)NC(=O)N(CC(=O)NNC(=O)c2ccccc2F)C1=O", "Potency": "inconclusive: 20.6 µM [activator, single point]"}
{"smiles": "CN(C(=O)COn1nnc2ccc(S(=O)(=O)N3CCOCC3)cc21)c1ccccc1", "Potency": "inconclusive: 32.6 µM [activator, partial curve, poor fit]"}
{"smiles": "COc1ccc(-c2cc(=O)oc3cc(OC(=O)C4CCCCC4)ccc23)cc1", "Potency": "inconclusive: 8.2 µM [inhibitor, partial curve]"}
{"smiles": "O=C1CN(C(=O)CSc2ccccn2)c2ccccc2N1", "Potency": "inconclusive: 29.1 µM [activator, single point]"}
{"smiles": "CC(C)c1ccc(/C=N/NC(=O)CCNC(=O)c2ccccc2)cc1", "Potency": "inconclusive: 18.3 µM [activator, partial curve]"}
{"smiles": "CSc1ccc(CN2CCN(C(=O)CC(C)C)CC2)cc1", "Potency": "inconclusive: 22.4 µM [inhibitor, single point]"}
{"smiles": "O=C(COC(=O)CNC(=O)c1ccc(-c2ccccc2)cc1)NCc1ccco1", "Potency": "inconclusive: 6.51 µM [activator, full curve, poor fit]"}
{"smiles": "O=C1NC(=Nc2ccccc2Cl)S/C1=C\\c1cccc([N+](=O)[O-])c1", "activity change, negative = inhibition": "inactive: 2.45%"}
{"smiles": "O=C(C#Cc1ccccc1)c1cccc([N+](=O)[O-])c1", "Potency": "inconclusive: 29.1 µM [inhibitor, single point]"}
{"smiles": "Cc1cc(-c2nnc(-c3cccc(C(F)(F)F)c3)o2)no1", "Potency": "inconclusive: 16.4 µM [activator, partial curve, poor fit]"}
{"smiles": "CCCNC(=O)Nc1cc(OC)c(OC)cc1Cc1nccc2cc(OC)c(OC)cc12", "Potency": "inconclusive: 0.0651 µM [inhibitor, full curve]"}
{"smiles": "CCOC(=O)c1c(NC(=O)c2ccc(C)cc2)sc2c1CC(C)(C)OC2", "Potency": "active: 8.2 µM"}
{"smiles": "Cc1cccc(NC(=S)N2CCCC2)c1", "activity change, negative = inhibition": "inactive: 0%"}
{"smiles": "CCn1ncc(Br)c1C(=O)Nc1ccn(C23CC4CC(CC(C4)C2)C3)n1", "activity change, negative = inhibition": "inactive: -0.0605%"}
{"smiles": "Cc1ccc(Oc2nnc(-c3cccs3)c3ccccc23)cc1C", "activity change, negative = inhibition": "inactive: -5.76%"}
{"smiles": "CCN(CC)c1ccc(-c2nc3cnccc3n2C)cc1", "Potency": "inconclusive: 6.51 µM [activator, partial curve]"}
{"smiles": "Cc1sc2nc(CSc3nnc(Cc4cccs4)n3C3CCCCC3)[nH]c(=O)c2c1C", "Potency": "inconclusive: 20.6 µM [inhibitor, partial curve, poor fit]"}
{"smiles": "CC12CCC(=O)N1C(C(=O)Nc1nc(-c3ccccc3)cs1)CS2", "note": "(stereo not drawn)", "Potency": "inconclusive: 29.1 µM [activator, single point]"}
{"smiles": "O=C(O)c1c(-n2cccc2)sc2c1CCCC2", "Potency": "inconclusive: 18.3 µM [activator, partial curve, poor fit]"}
{"smiles": "CCOc1ccc(NC(=O)c2ccc(NS(=O)(=O)c3cccs3)cc2)cc1", "activity change, negative = inhibition": "inactive: 9.33%"}
{"smiles": "O=C(NCc1ccccn1)c1ccc(Br)s1", "Potency": "inconclusive: 9.2 µM [activator, partial curve, poor fit]"}
{"smiles": "Cc1nc(-c2ccc(C#N)cc2)cs1", "activity change, negative = inhibition": "inactive: 13.9%"}
{"smiles": "COCCn1c(N)c(C#N)c2nc3ccccc3nc21", "activity change, negative = inhibition": "inactive: -3.21%"}
{"smiles": "CN1CCN(C(=O)/C=C/c2cn(-c3ccccc3)nc2-c2ccc3c(c2)OCCO3)CC1", "Potency": "active: 10.3 µM"}
{"smiles": "COc1cccc(NC(=S)/C(=C(\\[O-])c2ccc(OC(F)F)cc2)[n+]2ccccc2)c1", "activity change, negative = inhibition": "inactive: 14.1%"}
{"smiles": "CC(C(=O)N1c2ccccc2Sc2ccccc21)n1nnc(-c2cccs2)n1", "note": "(stereo not drawn)", "activity change, negative = inhibition": "inactive: -15.1%"}
{"smiles": "O=C(c1ccccc1Br)N1CCCC(c2nc(-c3cccs3)no2)C1", "note": "(stereo not drawn)", "Potency": "inconclusive: 29.1 µM [inhibitor, single point]"}
